From article PMC4881025
These are yes or no findings as the source states them, for the method shown. In cells and extracts the contact can be indirect. Binding calls can cover weak binding; strength is not graded here.

The chains behind the UniProt entries cited, without tags or fusion partners. Where a name states a change or a piece, a line headed by the entry shows the natural chain unless it says otherwise.
UniProt Q80Z64: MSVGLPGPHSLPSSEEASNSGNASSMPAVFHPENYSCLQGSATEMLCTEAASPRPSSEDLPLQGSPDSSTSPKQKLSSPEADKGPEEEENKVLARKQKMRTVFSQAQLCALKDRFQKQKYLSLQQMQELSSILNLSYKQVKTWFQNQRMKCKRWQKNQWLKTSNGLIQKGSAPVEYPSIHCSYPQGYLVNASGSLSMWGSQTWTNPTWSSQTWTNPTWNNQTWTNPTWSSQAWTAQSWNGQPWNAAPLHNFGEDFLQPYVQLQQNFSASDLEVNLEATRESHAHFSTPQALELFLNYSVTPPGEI
UniProt P61202: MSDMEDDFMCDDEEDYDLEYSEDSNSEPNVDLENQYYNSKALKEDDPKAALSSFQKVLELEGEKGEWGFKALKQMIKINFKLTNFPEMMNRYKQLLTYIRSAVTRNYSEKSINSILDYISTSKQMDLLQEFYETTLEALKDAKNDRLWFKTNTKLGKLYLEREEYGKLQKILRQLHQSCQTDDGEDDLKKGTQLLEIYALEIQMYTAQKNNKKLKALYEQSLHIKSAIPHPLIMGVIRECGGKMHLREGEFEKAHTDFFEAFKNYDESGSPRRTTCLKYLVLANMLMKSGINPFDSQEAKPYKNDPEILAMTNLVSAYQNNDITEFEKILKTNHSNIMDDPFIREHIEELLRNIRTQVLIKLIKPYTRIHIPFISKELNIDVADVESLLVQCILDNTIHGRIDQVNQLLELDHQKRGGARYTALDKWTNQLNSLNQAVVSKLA

How the values were obtained:
[1] = biological target: Flag-tagged Δα2 Nanog (mouse) (UniProt Q80Z64); assay: co-IP; Fig. 3g: Cops2 with Flag-tagged WT, Δα1, Δα2 and Δα3 Nanog; cells not told; Western blot
[2] = biological target: Flag-tagged Δα3 Nanog (mouse) (UniProt Q80Z64); assay: as above

- binding [1]: binds
- binding [2]: binds
Substance: Cops2 (from UniProt P61202 1-443)
